According to PMC4153465:
No constants are given. Whether binding was seen depends on the method and setting.

By UniProt entry, the sequences of proteins in these tests, tags left out.
UniProt Q8K1B8: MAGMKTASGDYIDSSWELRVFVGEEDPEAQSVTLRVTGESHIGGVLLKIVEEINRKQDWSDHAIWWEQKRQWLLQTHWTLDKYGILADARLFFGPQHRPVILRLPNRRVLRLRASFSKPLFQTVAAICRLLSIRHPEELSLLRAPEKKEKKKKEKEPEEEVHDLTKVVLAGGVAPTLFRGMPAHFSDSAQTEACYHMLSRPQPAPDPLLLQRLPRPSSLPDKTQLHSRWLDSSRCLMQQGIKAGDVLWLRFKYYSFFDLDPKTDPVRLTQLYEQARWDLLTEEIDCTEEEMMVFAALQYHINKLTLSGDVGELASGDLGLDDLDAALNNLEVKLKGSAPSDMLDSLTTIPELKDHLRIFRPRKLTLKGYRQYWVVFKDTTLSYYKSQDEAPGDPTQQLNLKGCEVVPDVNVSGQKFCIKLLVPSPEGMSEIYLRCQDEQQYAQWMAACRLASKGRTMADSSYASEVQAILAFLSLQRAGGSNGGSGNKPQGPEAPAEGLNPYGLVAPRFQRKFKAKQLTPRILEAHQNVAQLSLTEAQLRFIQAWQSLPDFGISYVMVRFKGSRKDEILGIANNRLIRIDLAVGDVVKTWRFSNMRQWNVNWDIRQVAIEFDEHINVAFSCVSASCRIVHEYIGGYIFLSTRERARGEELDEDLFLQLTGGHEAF

Molecular target: recombinant murine kindlin-3 (mouse) (UniProt Q8K1B8)
Assay: SEC; Superdex S200 (16/60), Tris-HCl pH 7.5, 150 mM NaCl, 1 mM DTT, 20 °C; size judged from the elution volume; both purified

“recombinant murine kindlin-3 (from UniProt Q8K1B8 1-665)” was tested, and the binding was “no binding”.
